Values from PubChem BioAssay AID1259308 (NCATS, 2017).
This is an unselected part of about 59,000 reagents. In the full data, about 1,510 (2.6%) got an active call. 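Calls use total luciferase alone and ignore viability, so some active siRNAs may act by altering cell number.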 The numbers tell different reagents against one gene apart. Further read-outs or replicates are left out here. No sequences are given here.

Test: 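Genes whose loss raises luciferase production in HEK293 cells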 (primary screen)
Cells: human HEK293 embryonic kidney cells stably expressing firefly luciferase (HEK-CMV-Luc2-Hygro)
Reagents: single siRNA against human genes, 0.8 pmol siRNA per well
Duration: 72 h
Detection: 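Luciferase light (ONE-Glo) measured on one replicate plate set and viability (CellTiter-Glo) on the other, scaled to a negative control siRNA, with robust z-scores and luciferase per cell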
Reading the numbers: total luciferase, z-score: higher = more reporter protein produced
Call rule: 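Active when the median/MAD z-score for overall luciferase is greater than 3; a gene was taken forward for validation with new siRNAs if at least two of its three siRNAs passed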
Calls: active = raised luciferase; inactive = no rise

Knock-down of WASHC4 (WASH complex subunit 4) #1 came out at: total luciferase, z-score -1.79; inactive.
Against WASHC4 (WASH complex subunit 4) #2, the values are total luciferase, z-score 0.492; inactive.
Depletion of WASHC4 (WASH complex subunit 4) #3 gave: total luciferase, z-score 1.05; inactive.
With knock-down of ANPEP (alanyl aminopeptidase, membrane) #1 the results were total luciferase, z-score 0.0522; inactive.
After knock-down of ANPEP (alanyl aminopeptidase, membrane) #2, the record shows total luciferase, z-score -0.0465; inactive.
Against ANPEP (alanyl aminopeptidase, membrane) #3, the entry reads total luciferase, z-score -0.739; inactive.
GALNT7 (polypeptide N-acetylgalactosaminyltransferase 7) #1 showed total luciferase, z-score -1.05; inactive.
GALNT7 (polypeptide N-acetylgalactosaminyltransferase 7) #2 showed total luciferase, z-score -0.164; inactive.
Against GALNT7 (polypeptide N-acetylgalactosaminyltransferase 7) #3, the entry reads total luciferase, z-score 0.861; inactive.
With knock-down of PCDH15 (protocadherin related 15) #1, the screen gave total luciferase, z-score -0.0556; inactive.
Knock-down of PCDH15 (protocadherin related 15) #2 resulted in: total luciferase, z-score 4.98; active.
After knock-down of PCDH15 (protocadherin related 15) #3, the screen gave total luciferase, z-score 0.126; inactive.
Knock-down of LOC728587 (zinc finger protein 736 pseudogene) #1 came out at: total luciferase, z-score -0.491; inactive.
LOC728587 (zinc finger protein 736 pseudogene) #2 showed total luciferase, z-score 1.17; inactive.
LOC728587 (zinc finger protein 736 pseudogene) #3 gave total luciferase, z-score -0.882; inactive.
CFAP299 (cilia and flagella associated protein 299) #1 gave total luciferase, z-score -0.088; inactive.
After knock-down of CFAP299 (cilia and flagella associated protein 299) #2, the screen gave total luciferase, z-score 0.421; inactive.
CFAP299 (cilia and flagella associated protein 299) #3 scored total luciferase, z-score 0.247; inactive.
For LRRC73 (leucine rich repeat containing 73) #1 the deposit lists total luciferase, z-score 1.72; inactive.
For LRRC73 (leucine rich repeat containing 73) #2, the entry reads total luciferase, z-score 0.88; inactive.
With knock-down of LRRC73 (leucine rich repeat containing 73) #3, the record shows total luciferase, z-score -2.14; inactive.

Laid out differently: results already given.
gene symbol,reagent,"total luciferase, z-score",activity call
GALNT7 (polypeptide N-acetylgalactosaminyltransferase 7),3,0.861,inactive
PCDH15 (protocadherin related 15),1,-0.0556,inactive
PCDH15 (protocadherin related 15),2,4.98,active
PCDH15 (protocadherin related 15),3,0.126,inactive
